Test results from paper PMC10901899.
Results are given in words; binding and its absence hold for the method and conditions named. In cells and extracts the contact can be indirect. Some binding calls cover weakened binding; strength is not graded here. For some assays here: Sequences can lack the tags named with a protein.

Protein sequences, listed by entry. Tags and fused reporters are not part of them. Lines headed by an entry give the natural chain unless they say otherwise; changes in a name come on top.
UniProt P25021: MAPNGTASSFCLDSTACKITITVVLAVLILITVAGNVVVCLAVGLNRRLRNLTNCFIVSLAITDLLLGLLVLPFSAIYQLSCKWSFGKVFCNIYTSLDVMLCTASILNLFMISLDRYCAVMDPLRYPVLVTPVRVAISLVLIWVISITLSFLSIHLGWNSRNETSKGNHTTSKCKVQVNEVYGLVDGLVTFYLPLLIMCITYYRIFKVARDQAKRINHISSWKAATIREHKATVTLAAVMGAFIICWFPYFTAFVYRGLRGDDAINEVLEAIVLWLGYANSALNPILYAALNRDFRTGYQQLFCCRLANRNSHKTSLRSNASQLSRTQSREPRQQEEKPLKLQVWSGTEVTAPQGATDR
UniProt P35367: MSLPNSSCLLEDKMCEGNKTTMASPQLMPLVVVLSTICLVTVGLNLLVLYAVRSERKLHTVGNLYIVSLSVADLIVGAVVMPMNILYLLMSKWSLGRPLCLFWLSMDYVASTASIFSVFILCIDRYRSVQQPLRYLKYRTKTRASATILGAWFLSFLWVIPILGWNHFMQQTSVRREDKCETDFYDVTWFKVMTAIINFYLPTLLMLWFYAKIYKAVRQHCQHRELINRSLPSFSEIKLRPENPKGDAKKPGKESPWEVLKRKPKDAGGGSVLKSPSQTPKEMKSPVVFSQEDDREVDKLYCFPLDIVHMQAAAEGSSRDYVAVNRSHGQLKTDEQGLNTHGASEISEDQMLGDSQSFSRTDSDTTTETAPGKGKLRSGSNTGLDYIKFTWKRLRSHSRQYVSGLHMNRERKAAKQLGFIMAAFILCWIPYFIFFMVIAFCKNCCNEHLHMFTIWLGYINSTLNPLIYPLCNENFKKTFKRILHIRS

Experiments:
[1] = molecular target: T1, free fatty acid 2 receptor, cell-free synthesized, with C-terminal Strep-tag, in nanodiscs (DOPG) (UniProt O15552); test: condition: 0.5 µM GPCR/ND complexes added to the cells; pull-down; HEK293 cells transfected with Flag-H1R or Flag-H2R; 0.5 µM purified Strep-tagged GPCR/ND (DOPG) complexes nanotransferred into the cells; cells washed and lysed; anti-Strep pulldown with magnetic Strep-Tactin beads; anti-Flag immunoblot; performed once; only the target purified
T1 sequence: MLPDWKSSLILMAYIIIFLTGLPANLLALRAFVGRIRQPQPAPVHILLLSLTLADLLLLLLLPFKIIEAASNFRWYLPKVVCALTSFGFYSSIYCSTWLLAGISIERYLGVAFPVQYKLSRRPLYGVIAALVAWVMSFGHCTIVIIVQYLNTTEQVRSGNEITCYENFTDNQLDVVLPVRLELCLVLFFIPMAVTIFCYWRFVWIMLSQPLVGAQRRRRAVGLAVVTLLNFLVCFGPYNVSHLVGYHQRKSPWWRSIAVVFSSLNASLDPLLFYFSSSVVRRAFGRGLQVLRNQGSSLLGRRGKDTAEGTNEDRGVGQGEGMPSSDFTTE

[2] = molecular target: human histamine 2 receptor, cell-free synthesized, with C-terminal Strep-tag, in nanodiscs (DOPG) (human) (UniProt P25021); test: pull-down; HEK293 cells transfected with Flag-H1R or Flag-H2R; 0.5 µM purified Strep-tagged GPCR/ND (DOPG) complexes nanotransferred into the cells; cells washed and lysed; anti-Strep pulldown with magnetic Strep-Tactin beads; anti-Flag immunoblot; performed once; only the target purified

Flag-tagged H1R expressed in transfected HEK293 cells (from UniProt P35367 1-487) (receptor)
binding [1]: no binding | binding [2]: binds
